The source of these data is PMC9018773.

Amino acid sequences for entries named in this document (tags omitted).
UniProt Q62120: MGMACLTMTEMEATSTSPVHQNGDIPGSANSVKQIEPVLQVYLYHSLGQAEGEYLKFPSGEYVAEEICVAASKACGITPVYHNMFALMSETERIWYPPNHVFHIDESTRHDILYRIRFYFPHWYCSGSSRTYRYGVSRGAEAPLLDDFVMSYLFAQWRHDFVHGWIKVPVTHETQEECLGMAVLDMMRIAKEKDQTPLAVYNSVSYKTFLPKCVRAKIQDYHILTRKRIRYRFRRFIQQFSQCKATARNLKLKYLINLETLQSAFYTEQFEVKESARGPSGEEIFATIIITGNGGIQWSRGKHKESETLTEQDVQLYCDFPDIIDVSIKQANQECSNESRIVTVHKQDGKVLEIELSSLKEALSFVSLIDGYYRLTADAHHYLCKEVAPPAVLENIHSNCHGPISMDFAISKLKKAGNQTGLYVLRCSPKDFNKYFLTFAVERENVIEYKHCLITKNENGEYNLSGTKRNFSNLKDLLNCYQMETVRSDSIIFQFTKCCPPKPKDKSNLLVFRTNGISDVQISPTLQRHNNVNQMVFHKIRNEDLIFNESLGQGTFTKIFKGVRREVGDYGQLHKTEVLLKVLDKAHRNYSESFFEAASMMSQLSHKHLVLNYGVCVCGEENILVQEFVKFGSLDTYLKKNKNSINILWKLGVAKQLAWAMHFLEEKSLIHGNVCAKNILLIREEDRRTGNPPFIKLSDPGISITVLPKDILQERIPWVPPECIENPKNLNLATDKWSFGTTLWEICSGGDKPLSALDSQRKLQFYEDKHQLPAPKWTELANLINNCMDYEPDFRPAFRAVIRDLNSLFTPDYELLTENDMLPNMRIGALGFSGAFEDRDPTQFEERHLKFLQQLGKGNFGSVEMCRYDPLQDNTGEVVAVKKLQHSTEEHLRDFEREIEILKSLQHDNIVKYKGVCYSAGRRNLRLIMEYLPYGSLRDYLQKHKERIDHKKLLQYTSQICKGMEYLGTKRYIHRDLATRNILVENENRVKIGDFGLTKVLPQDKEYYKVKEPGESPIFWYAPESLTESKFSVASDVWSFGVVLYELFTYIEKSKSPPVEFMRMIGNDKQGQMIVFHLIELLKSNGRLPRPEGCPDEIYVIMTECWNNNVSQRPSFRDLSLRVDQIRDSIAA

These are yes or no findings as the source states them, for the method shown. In cells and extracts the contact can be indirect. Some entries that bind do so weakly or less than the wild type.

For assay [1], the target named is T1, density regulated re-initiation and release factor (DENR) (UniProt Q9CQJ6).
T1 sequence: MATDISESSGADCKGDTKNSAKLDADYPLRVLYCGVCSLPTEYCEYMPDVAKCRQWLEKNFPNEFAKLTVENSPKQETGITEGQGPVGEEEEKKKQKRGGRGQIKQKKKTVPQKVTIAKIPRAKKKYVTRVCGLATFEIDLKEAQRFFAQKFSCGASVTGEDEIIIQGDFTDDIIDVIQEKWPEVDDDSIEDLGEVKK
Nature of the assay: co-IP; endogenous proteins; 10 million cells lysed in NP40 buffer; supernatants incubated with rabbit anti-DENR, rabbit anti-JAK2 or rabbit normal IgG for 4 h at 4 °C, protein A/G beads 2 h, five washes in NP40 buffer; detected by blot.

Assay [2] concerns the target Janus kinase 2 (JAK2) (UniProt Q62120). Described as above.

In the case of “Janus kinase 2 (JAK2) (from UniProt Q62120 1-1132)”, the binding entry in assay [1] is “no binding”.

B1: Multiple Copies In T-Cell Lymphoma-1 (MCTS1) (protein, UniProt Q9DB27 1-181)
chain: MFKKFDEKENVSNCIQLKTSVIKGIKNQLLEQFPGIEPWLNQIMPKKDPVKIVRCHEHIEILTVNGELLFFRQREGPFYPTLRLLHKYPFILPHQQVDKGAIKFVLSGANIMCPGLTSPGAKLYPAAVDTIVAIMAEGKQHALCVGVMKMSAEDIEKVNKGIGIENIHYLNDGLWHMKTYK
As for B1, the binding entry in assay [1] was “binds”.

B2: density regulated re-initiation and release factor (DENR) (protein, UniProt Q9CQJ6 1-198)
chain: MATDISESSGADCKGDTKNSAKLDADYPLRVLYCGVCSLPTEYCEYMPDVAKCRQWLEKNFPNEFAKLTVENSPKQETGITEGQGPVGEEEEKKKQKRGGRGQIKQKKKTVPQKVTIAKIPRAKKKYVTRVCGLATFEIDLKEAQRFFAQKFSCGASVTGEDEIIIQGDFTDDIIDVIQEKWPEVDDDSIEDLGEVKK
As to B2, in assay [2], the binding result was “no binding”.
